From article PMC11703740, “Disparate molecular mechanisms in cardiac ryanodine receptor channelopathies” (Frontiers in Molecular Biosciences, 2024)
These are yes or no findings as the source states them, for the method shown. Binding seen in cells or lysates may run through a third protein. Some binding calls cover weakened binding; strength is not graded here.

B1: NT^WT (human RyR2 residues 1-906, cMyc-tagged) (domain or fragment, UniProt Q92736 1-906, looked up)
chain: MADGGEGEDEIQFLRTDDEVVLQCTATIHKEQQKLCLAAEGFGNRLCFLESTSNSKNVPPDLSICTFVLEQSLSVRALQEMLANTVEKSEGQVDVEKWKFMMKTAQGGGHRTLLYGHAILLRHSYSGMYLCCLSTSRSSTDKLAFDVGLQEDTTGEACWWTIHPASKQRSEGEKVRVGDDLILVSVSSERYLHLSYGNGSLHVDAAFQQTLWSVAPISSGSEAAQGYLIGGDVLRLLHGHMDECLTVPSGEHGEEQRRTVHYEGGAVSVHARSLWRLETLRVAWSGSHIRWGQPFRLRHVTTGKYLSLMEDKNLLLMDKEKADVKSTAFTFRSSKEKLDVGVRKEVDGMGTSEIKYGDSVCYIQHVDTGLWLTYQSVDVKSVRMGSIQRKAIMHHEGHMDDGISLSRSQHEESRTARVIRSTVFLFNRFIRGLDALSKKAKASTVDLPIESVSLSLQDLIGYFHPPDEHLEHEDKQNRLRALKNRQNLFQEEGMINLVLECIDRLHVYSSAAHFADVAGREAGESWKSILNSLYELLAALIRGNRKNCAQFSGSLDWLISRLERLEASSGILEVLHCVLVESPEALNIIKEGHIKSIISLLDKHGRNHKVLDVLCSLCVCHGVAVRSNQHLICDNLLPGRDLLLQTRLVNHVSSMRPNIFLGVSEGSAQYKKWYYELMVDHTEPFVTAEATHLRVGWASTEGYSPYPGGGEEWGGNGVGDDLFSYGFDGLHLWSGCIARTVSSPNQHLLRTDDVISCCLDLSAPSISFRINGQPVQGMFENFNIDGLFFPVVSFSAGIKVRFLLGGRHGEFKFLPPPGYAPCYEAVLPKEKLKVEHSREYKQERTYTRDLLGPTVSLTQAAFTPIPVDTSQIVLPPHLERIREKLAENIHELWVMNKIELGWQYGP
notes: cardiac ryanodine receptor (RyR2), human, N-terminus residues 1-906; also called wild-type RyR2 N-terminus; RyR2-NT; source: HEK293, transiently transfected, in cell homogenate (cross-linking) or CHAPS-solubilized lysate (co-IP)
B2: NT^A77T (human RyR2 residues 1-906, cMyc-tagged, A77T) (domain or fragment, UniProt Q92736 1-906, looked up)
chain: MADGGEGEDEIQFLRTDDEVVLQCTATIHKEQQKLCLAAEGFGNRLCFLESTSNSKNVPPDLSICTFVLEQSLSVRTLQEMLANTVEKSEGQVDVEKWKFMMKTAQGGGHRTLLYGHAILLRHSYSGMYLCCLSTSRSSTDKLAFDVGLQEDTTGEACWWTIHPASKQRSEGEKVRVGDDLILVSVSSERYLHLSYGNGSLHVDAAFQQTLWSVAPISSGSEAAQGYLIGGDVLRLLHGHMDECLTVPSGEHGEEQRRTVHYEGGAVSVHARSLWRLETLRVAWSGSHIRWGQPFRLRHVTTGKYLSLMEDKNLLLMDKEKADVKSTAFTFRSSKEKLDVGVRKEVDGMGTSEIKYGDSVCYIQHVDTGLWLTYQSVDVKSVRMGSIQRKAIMHHEGHMDDGISLSRSQHEESRTARVIRSTVFLFNRFIRGLDALSKKAKASTVDLPIESVSLSLQDLIGYFHPPDEHLEHEDKQNRLRALKNRQNLFQEEGMINLVLECIDRLHVYSSAAHFADVAGREAGESWKSILNSLYELLAALIRGNRKNCAQFSGSLDWLISRLERLEASSGILEVLHCVLVESPEALNIIKEGHIKSIISLLDKHGRNHKVLDVLCSLCVCHGVAVRSNQHLICDNLLPGRDLLLQTRLVNHVSSMRPNIFLGVSEGSAQYKKWYYELMVDHTEPFVTAEATHLRVGWASTEGYSPYPGGGEEWGGNGVGDDLFSYGFDGLHLWSGCIARTVSSPNQHLLRTDDVISCCLDLSAPSISFRINGQPVQGMFENFNIDGLFFPVVSFSAGIKVRFLLGGRHGEFKFLPPPGYAPCYEAVLPKEKLKVEHSREYKQERTYTRDLLGPTVSLTQAAFTPIPVDTSQIVLPPHLERIREKLAENIHELWVMNKIELGWQYGP
notes: cardiac ryanodine receptor (RyR2), human, N-terminus residues 1-906 with the patient mutation A77T; Mutation made by site-directed mutagenesis in the NT^WT plasmid; a variant reported in patients; also called type II^inter variant; source: HEK293, transiently transfected, in cell homogenate (cross-linking) or CHAPS-solubilized lysate (co-IP)
B3: NT^G357S (human RyR2 residues 1-906, cMyc-tagged, G357S) (domain or fragment, UniProt Q92736 1-906, looked up)
chain: MADGGEGEDEIQFLRTDDEVVLQCTATIHKEQQKLCLAAEGFGNRLCFLESTSNSKNVPPDLSICTFVLEQSLSVRALQEMLANTVEKSEGQVDVEKWKFMMKTAQGGGHRTLLYGHAILLRHSYSGMYLCCLSTSRSSTDKLAFDVGLQEDTTGEACWWTIHPASKQRSEGEKVRVGDDLILVSVSSERYLHLSYGNGSLHVDAAFQQTLWSVAPISSGSEAAQGYLIGGDVLRLLHGHMDECLTVPSGEHGEEQRRTVHYEGGAVSVHARSLWRLETLRVAWSGSHIRWGQPFRLRHVTTGKYLSLMEDKNLLLMDKEKADVKSTAFTFRSSKEKLDVGVRKEVDGMGTSEIKYSDSVCYIQHVDTGLWLTYQSVDVKSVRMGSIQRKAIMHHEGHMDDGISLSRSQHEESRTARVIRSTVFLFNRFIRGLDALSKKAKASTVDLPIESVSLSLQDLIGYFHPPDEHLEHEDKQNRLRALKNRQNLFQEEGMINLVLECIDRLHVYSSAAHFADVAGREAGESWKSILNSLYELLAALIRGNRKNCAQFSGSLDWLISRLERLEASSGILEVLHCVLVESPEALNIIKEGHIKSIISLLDKHGRNHKVLDVLCSLCVCHGVAVRSNQHLICDNLLPGRDLLLQTRLVNHVSSMRPNIFLGVSEGSAQYKKWYYELMVDHTEPFVTAEATHLRVGWASTEGYSPYPGGGEEWGGNGVGDDLFSYGFDGLHLWSGCIARTVSSPNQHLLRTDDVISCCLDLSAPSISFRINGQPVQGMFENFNIDGLFFPVVSFSAGIKVRFLLGGRHGEFKFLPPPGYAPCYEAVLPKEKLKVEHSREYKQERTYTRDLLGPTVSLTQAAFTPIPVDTSQIVLPPHLERIREKLAENIHELWVMNKIELGWQYGP
notes: cardiac ryanodine receptor (RyR2), human, N-terminus residues 1-906 with the CPVT mutation G357S; Mutation made by site-directed mutagenesis in the NT^WT plasmid; a variant reported in patients; also called type II^intra variant; source: HEK293, transiently transfected, in cell homogenate (cross-linking) or CHAPS-solubilized lysate (co-IP)
B4: NT^R169L (human RyR2 residues 1-906, cMyc-tagged, R169L) (domain or fragment, UniProt Q92736 1-906, looked up)
chain: MADGGEGEDEIQFLRTDDEVVLQCTATIHKEQQKLCLAAEGFGNRLCFLESTSNSKNVPPDLSICTFVLEQSLSVRALQEMLANTVEKSEGQVDVEKWKFMMKTAQGGGHRTLLYGHAILLRHSYSGMYLCCLSTSRSSTDKLAFDVGLQEDTTGEACWWTIHPASKQLSEGEKVRVGDDLILVSVSSERYLHLSYGNGSLHVDAAFQQTLWSVAPISSGSEAAQGYLIGGDVLRLLHGHMDECLTVPSGEHGEEQRRTVHYEGGAVSVHARSLWRLETLRVAWSGSHIRWGQPFRLRHVTTGKYLSLMEDKNLLLMDKEKADVKSTAFTFRSSKEKLDVGVRKEVDGMGTSEIKYGDSVCYIQHVDTGLWLTYQSVDVKSVRMGSIQRKAIMHHEGHMDDGISLSRSQHEESRTARVIRSTVFLFNRFIRGLDALSKKAKASTVDLPIESVSLSLQDLIGYFHPPDEHLEHEDKQNRLRALKNRQNLFQEEGMINLVLECIDRLHVYSSAAHFADVAGREAGESWKSILNSLYELLAALIRGNRKNCAQFSGSLDWLISRLERLEASSGILEVLHCVLVESPEALNIIKEGHIKSIISLLDKHGRNHKVLDVLCSLCVCHGVAVRSNQHLICDNLLPGRDLLLQTRLVNHVSSMRPNIFLGVSEGSAQYKKWYYELMVDHTEPFVTAEATHLRVGWASTEGYSPYPGGGEEWGGNGVGDDLFSYGFDGLHLWSGCIARTVSSPNQHLLRTDDVISCCLDLSAPSISFRINGQPVQGMFENFNIDGLFFPVVSFSAGIKVRFLLGGRHGEFKFLPPPGYAPCYEAVLPKEKLKVEHSREYKQERTYTRDLLGPTVSLTQAAFTPIPVDTSQIVLPPHLERIREKLAENIHELWVMNKIELGWQYGP
notes: cardiac ryanodine receptor (RyR2), human, N-terminus residues 1-906 with the CPVT mutation R169L; Mutation made by site-directed mutagenesis in the NT^WT plasmid; a variant reported in patients; also called type I variant; source: HEK293, transiently transfected, in cell homogenate (cross-linking) or CHAPS-solubilized lysate (co-IP)

Legend:
[1] = target: HA-tagged RyR2-CT (human RyR2 residues 3529-4967) (human) (UniProt Q92736); test: co-IP; data not shown; NT^R407I interaction with RyR2-CT compared to WT
[2] = target: NT^R407I (human RyR2 residues 1-906, cMyc-tagged, R407I) (human) (UniProt Q92736); test: cross-linking; data not shown; tetramerization of NT^R407I compared to WT
[3] = target: NT^WT (human RyR2 residues 1-906, cMyc-tagged) (human) (UniProt Q92736); test: as above
[4] = target: HA-tagged RyR2-CT (human RyR2 residues 3529-4967) (human) (UniProt Q92736); test: co-IP; HEK293 cells co-expressing HA-RyR2-CT and cMyc-RyR2-NT constructs; lysate in 20 mM Tris, 150 mM NaCl, 0.5% CHAPS, pH 7.4; IP with Ab^HA (rabbit ab9110) on Protein A-Sepharose, 4 C, 2 h; blot with Ab^cMyc; non-immune rabbit IgG as negative control

Row | Molecule | binding [1] | binding [2] | binding [3] | binding [4]
1 | NT^R407I (human RyR2 residues 1-906, cMyc-tagged, R407I) (from UniProt Q92736 1-906) (domain or fragment) | binds | binds | – | –
2 | B1 | binds | – | binds | binds
3 | B2 | – | – | – | binds
4 | B3 | – | – | – | binds
5 | B4 | – | – | – | binds
